Laboratory results reported in patent publication US20090181889A1, “COMPOSITIONS AND METHODS FOR DETECTION AND TREATMENT OF HUMAN HERPESVIRUS (HHV)-6” (priority 2006, published 2009).
At least one compound was matched to its structure with a doubt left.

Assays:
[1] = test system: wild-type 293 cells (HEK 293 cell membranes); test: [35S]GTPγS binding to native (wild-type) HEK293 cell membranes; format: biochemical, human; settings: binding without compound = 100%, three experiments
[2] = test system: human μ, δ, or κ opioid receptor; test: [35S]GTPγS binding to control CHO cell membranes with opioid receptors; format: biochemical; settings: CHO cells stably transfected with human μ, Emax obtained at opioid concentration less than 1 μM

Q: What does the source list for `CC(C)[C@H](NC(=O)[C@H](CCC(=O)O)NC(=O)[C@H](Cc1ccccc1)NC(=O)[C@@H](C)NC(=O)[C@@H](N)Cc1ccc(O)cc1)C(=O)N[C@H](C(=O)NCC(N)=O)C(C)C` [Deltorphin II]?
A: % Control [35S]GTPγS binding ± SEM, Native [1]: 100 ± 4%; Control Cell Emax, % Control [35S]GTPγS binding ± SEM [2]: 234 ± 15%
